In PubChem BioAssay AID504375 (National Center for Advancing Translational Sciences (NCATS), 2011):
The campaign covered roughly 1,600 compounds. About 25 (2%) were called active. Inconclusive results (about 7%) are left out. Calls follow the shape of the dose curve; as a rule, active = well fitted inhibition curve with a large enough effect; inconclusive = small, poorly fitted or top-dose-only effect, or effect the other way; inactive = no such curve, though single readings can be large or run the other way. The list shows a part of the results.

The chains behind the UniProt entries cited, without tags or fusion partners.
UniProt Q01196, whole entry, looked up: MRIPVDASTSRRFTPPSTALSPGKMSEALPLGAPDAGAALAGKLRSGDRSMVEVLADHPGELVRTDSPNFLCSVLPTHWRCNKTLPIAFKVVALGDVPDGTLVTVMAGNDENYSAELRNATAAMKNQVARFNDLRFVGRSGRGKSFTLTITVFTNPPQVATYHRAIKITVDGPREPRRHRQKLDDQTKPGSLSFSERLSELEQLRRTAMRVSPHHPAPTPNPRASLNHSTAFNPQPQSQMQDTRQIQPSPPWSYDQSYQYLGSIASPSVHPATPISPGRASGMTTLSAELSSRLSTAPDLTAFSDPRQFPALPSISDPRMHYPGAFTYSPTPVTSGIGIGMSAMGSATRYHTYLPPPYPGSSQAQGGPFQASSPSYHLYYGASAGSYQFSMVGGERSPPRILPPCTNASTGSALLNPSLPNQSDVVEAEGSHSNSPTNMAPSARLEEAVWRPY
UniProt Q13951, whole entry, looked up: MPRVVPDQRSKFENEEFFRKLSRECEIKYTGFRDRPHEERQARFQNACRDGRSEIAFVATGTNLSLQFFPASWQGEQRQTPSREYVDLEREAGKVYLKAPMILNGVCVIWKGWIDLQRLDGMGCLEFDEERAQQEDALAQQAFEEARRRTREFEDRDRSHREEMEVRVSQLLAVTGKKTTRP

biological target: Runt-related transcription factor 1 (Homo sapiens) + Core-binding factor subunit beta (Homo sapiens) (UniProt Q01196+Q13951); test: qHTS Assay for Compounds Blocking the Interaction Between CBF-beta and RUNX1 for the Treatment of Acute Myeloid Leukemia: Hit Validation with Orthogonal Assay; conditions: CBFbeta-RUNX1 binding orthogonal assay, biochemical; series mostly up to 41 µM; activity change, negative = inhibition: at the top concentration
Excerpt: NIH Chemical Genomics Center [NCGC]
NIH Molecular Libraries Probe Production centers Network [MLPCN]
Assay Submitter (PI): Paul Liu
Core Binding Factor (CBF) abnormalities are associated with 20-25% of all acute myeloid leukemias (AML), of which 5-10% are further sub classified as acute myelomonocytic leukemia with eosinophilia, also known as M4Eo in the FAB classification scheme. This subtype of leukemia is usually associated with chromosome 16 inversion (p13:q22). Chromosome 16 inversion results in formation of the fusion oncogene CBFB-MYH11, which encodes the fusion protein CBF-beta-SMMHC.
It has been hypothesized that the interference of CBF-beta and RUNX1 binding could have therapeutic implications for patients with CBF mediated leukemias. We developed a CBF-beta and RUNX1 binding assay in AlphaScreenTM format and optimized it for high throughput screening to search for inhibitors. The goal of this project is to screen MLPCN's compound collection (MLSMR) for identifying the inhibitors of the interaction between CBF-beta and RUNX1 proteins as research probes. If these probes work well in the animal models, the ultimate goal of this project is to development a new drug treatment for this disease.
This assay can not be used to assess how apparent inhibitors interfere with protein binding, and whether inhibitors specifically bind to either protein. Disruption of this protein-protein interaction, through any mechanism, is the intended target activity.
The present data set was run to confirm the activity of hits from the primary screen using an orthogonal assay technology for measuring protein-protein interaction disruption.
A TR-FRET (time resolved fluorescence resonance energy transfer) assay was performed using the same assay buffer, protein concentrations and incubation times as described previously in the AlphaScreen assay, except that terbium (Tb+) labeled anti-his-antibody and XL665 linked streptavidin were used to capture the binding signal. The Tb+ labeled anti-his-antibody captures His(6)-CBF and XL665 linked streptavidin binds to biotin-RUNX1. The binding of RUNX1 to CBFbrings Tb+ and XL665 to proximity resulting in a TR-FRET signal. Briefly, in a white 384-well plate, 10 µl/well of mixture of biotin-RUNX1 and His(6)-CBFwere incubated with 10 µl/well buffer (positive control) or 10 µl/well compounds (negative control) for 20 min followed by an addition of 10 µl/well of Tb+ labeled anti-his(6)-antibody and XL665 linked streptavidin. After 90 min of incubation in the dark, the assay plate was measured in the Envision plate reader using TR-FRET detection mode. For the 1536-well plate format, 3 µl/well mixture of biotin-RUNX1 and His(6)-CBF (30 nM per protein) was incubated with 23 nl/well compound (dissolved in 100% DMSO) or the equivalent DMSO concentration (positive control) for 30 min followed by the addition of 1 µl/well of 0.44 ng Tb+ labeled anti-his(6)-antibody and 5 nM streptavodin-XL665. After 90 min of incubation, the assay plate was measured in the Envision plate reader.
The TR-FRET assay for detecting interaction between HIV-I Tat and […] was similarly performed with the recombinant full-length HIV-I Tat CLADE B and HIV-I Tat Biotin conjugated proteins supplied by Diatheva (Fano, Italy). Briefly, the His-CBF and Biotin-RUNX1 complex at a working concentration of 83.3 nM per protein were pre-incubated in assay buffer for 10 minutes on ice. Then HIV-I Tat or unlabeled CBF were added to reach final concentrations (Supplementary Figure 4b) and incubated for 5 minutes. Finally anti-His antibody and streptavidin-XL665 at a final concentration of 2.2 ng and 5 nM, respectively, were added to the plate, which was incubated for 1 hr prior to reading on the PerkinElmer Envision plate reader.
Keywords: MLSMR, MLPCN, NIH Roadmap, qHTS, NCGC, Core binding factor, CBF, CBF-beta, Acute myeloid leukemia
% is scaled to controls: 0 for no effect and ±100 for the full control effect; potency is read from the fitted curve at half-maximal effect.

Compound | activity change, negative = inhibition | Potency
CCOC(=O)c1sc(NC(=O)CSC(=S)N2CCN(C)CC2)nc1C | inactive: -20.5% | –
CC(=O)c1sc(C(C)(C)C)cc1NC(=O)/C=C/C(=O)O | inactive: 5.88% | –
Cn1c(-c2ccc3ccccc3n2)[n+](C)c2ccccc21 | inactive: 16.1% | –
Cc1[nH][nH]c(=O)c1C(c1ccc(N(C)C)c(Br)c1)c1c(C)[nH][nH]c1=O | inactive: 16.4% | –
CCOC(=O)c1sc(=S)n(-c2ccc(OC)cc2)c1N | inactive: 57.8% | –
Cc1nn(C)c(C)c1NC(=O)c1ccccc1NC(=O)Nc1ccccc1 | inactive: 3.06% | –
COc1ccc2c(c1)[nH]c1c(N3CCSCC3)ncnc12 | inactive: 3.21% | –
Clc1ccc(C2=Nn3c(Cn4nnc5ccccc54)nnc3SC2)cc1 | inactive: 2.69% | –
NC(=O)c1ccccc1OCC(=O)Nc1ccc(Cl)c(Cl)c1 | inactive: 0.0612% | –
COc1cc(/C=C2\SC(=S)N(NC(=O)c3ccncc3)C2=O)ccc1O | inactive: 72.8% | –
CCCOc1ccc(CSC(=N)N)cc1C(=O)OC | inactive: -1.37% | –
CC(C)CCCC(C)CCOC(=O)CN1CCCC1 (stereo not drawn) | inactive: -7.65% | –
O=C(O)c1cccc(COc2ccc3c(c2)CCC3)c1 | inactive: -20.8% | –
COc1ccccc1N1CC(C)(C)C(=O)N(C(=O)c2c(F)cccc2Cl)C1=S | inactive: 5.88% | –
COc1cc(C(=O)NC(=S)Nc2ccc3c(c2)OCO3)cc(OC)c1OC | inactive: 2.92% | –
Nc1nn(-c2ccccc2)c(N)c1N=Nc1cccc(F)c1 | inactive: 46.2% | –
NC(=O)NN=C1C2CCCC1C(c1ccccc1)NC2c1ccccc1 (stereo not drawn) | inactive: 3.94% | –
Cc1cc(C(F)(F)F)cc(NNC(=O)NC(=O)c2ccccc2Cl)n1 | inactive: 7.22% | –
N/C(=N\OC(=O)c1cnn(-c2ccccc2)c1C(F)(F)F)c1cc(C(F)(F)F)cc(C(F)(F)F)c1 | inactive: 14.9% | –
Cc1nc(SCCO)c([N+](=O)[O-])[nH]1 | inactive: 21.3% | –

Retrieved by compound from above (2):
Compound | activity change, negative = inhibition | Potency
CC(C)CCCC(C)CCOC(=O)CN1CCCC1 (stereo not drawn) | inactive: -7.65% | –
COc1cc(/C=C2\SC(=S)N(NC(=O)c3ccncc3)C2=O)ccc1O | inactive: 72.8% | –

(listing goes on)

Compound | activity change, negative = inhibition | Potency
O=C(N/N=C/c1ccccc1[N+](=O)[O-])c1cnccn1 | inactive: 72.5% | –
O=C(c1ccccc1)c1ccc2c(c1)OCCCO2 | inactive: -7.14% | –
CC(=O)c1c(C)nc(Nc2nc3ccccc3s2)nc1C | inactive: 8.18% | –
Cc1oc(S(=O)(=O)N2CCOCC2)cc1C(=O)Nc1ccc(Cl)cc1 | inactive: -6.9% | –
Cc1cc(=O)[nH]c(N/N=C/c2ccc3c(c2)OCCO3)n1 | inactive: 19.5% | –
COc1ccc(/C=N/NC(=O)CCn2cnc3ccccc32)cc1 | inactive: -2.9% | –
O=C(N/N=C/c1ccc(Br)s1)c1ccco1 | inactive: 17.6% | –
CN1C(CC(=O)Nc2ccc(Cl)cc2Cl)c2ccccc2CC1(C)C (stereo not drawn) | inactive: 2.79% | –
COc1ccc2[nH]c(=O)c(CN(C(=O)c3cccnc3)c3cccc(C)c3)cc2c1 | inactive: -9.76% | –
Cc1[nH]c2ccccc2c1C(=O)CSC(=S)N1CCN(C)CC1 | inactive: -14.2% | –
CCSc1nc(C)c(C)c(=O)[nH]1 | inactive: 8.66% | –
COC(=O)c1[nH]c2cc(OC)ccc2c1N=CN(C)C | inactive: 28.9% | –
CC(C)CCNC(=O)C(=O)NCc1ccccc1 | inactive: -21.2% | –
C(=C\c1nccc2c1[nH]c1ccccc12)/c1ccccc1 | inactive: 10.1% | –
O=C(Oc1ccc2c(c1)O/C(=C\c1ccncc1)C2=O)c1cccs1 | inactive: 10.4% | –
CCOC(=O)c1c2c([nH]c(=S)c1C#N)CCCC2 | inactive: 17.9% | –
Cn1ncc(Br)c1N1C(=O)CCC1=O | inactive: 1.93% | –
CC(C)Cn1nc(NC(=O)c2cccs2)c2cc3ccccc3nc21 | inactive: 20.5% | –
CNC(=O)Nc1cc(NC(=O)NC)cc(C(F)(F)F)c1 | inactive: -11.8% | –
CN(C)c1cc(-c2cccc([N+](=O)[O-])c2)oc(=O)c1Cl | inactive: 26.4% | –

Compound | activity change, negative = inhibition | Potency
CC(=O)c1sccc1NC(=O)c1ccccc1C(=O)O | inactive: 3.8% | –
Oc1cccc(O)c1O | – | active: 888 nM
Cc1nn2c(NC(C)C)c3c(nc2c1-c1ccccc1)CCC3 | inactive: 16.6% | –
Oc1ccc(Br)cc1/C=N/N1CCN(Cc2cccc3ccccc23)CC1 | inactive: 2.24% | –
Cc1ccc2nc(-c3ccc4c(c3)OCCO4)cn2c1 | inactive: -6.52% | –
Cc1c(NC(=O)Nc2c(Cl)cccc2Cl)c(=O)n(-c2ccccc2)n1C | inactive: 21.8% | –
CCN(CC)CCCN=Cc1c(O)n(-c2ccccc2C)c(=O)c2ccccc12 | inactive: 13.9% | –
CCN(CC)C(=O)Oc1cc(COC)nc(-c2ccccc2)n1 | inactive: -3.35% | –
Cc1ccc(CSc2nnc([C@@H]3CCCN3C(=O)OC(C)(C)C)o2)cc1 | inactive: 15.5% | –
CCN(CC(=O)Nc1ccc(C(=O)Nc2ccc(OC)cc2)cc1)Cc1nc2ccccc2c(=O)[nH]1 | inactive: 8.29% | –
CCOC(=O)c1ccc(N2CCCCC2)c(NS(=O)(=O)c2cccc(C(F)(F)F)c2)c1 | inactive: 10.6% | –
Cc1cc([N+](=O)[O-])nn1Cc1ccc(C(=O)N/N=C/c2ccc(N(C)C)cc2)cc1 | inactive: 37.7% | –
O=C(CN1C(=O)NC2(CCCCC2)C1=O)Nc1cccc(S(=O)(=O)N2CCOCC2)c1 | inactive: -1.5% | –
CC1(C)Cc2nc(-c3ccccc3)nc(SCC(O)CO)c2CO1 (stereo not drawn) | inactive: -10.9% | –
N/C(CC1CC1(Cl)Cl)=N\OC(=O)c1ccccc1 (stereo not drawn) | inactive: 1.08% | –
CC(=O)c1cnn(-c2ccc(Cl)cc2)c1C | inactive: 0.0856% | –
OCCNC(=S)NCc1ccccc1 | inactive: -1.68% | –
Cn1c2c(c(=O)n(C)c1=O)C(c1cccc(F)c1)C(C#N)=C(N)O2 (stereo not drawn) | inactive: 6.06% | –
